Test results: patent US20200407435A1
No constants are given. Whether binding was seen depends on the method and setting. Some entries that bind do so weakly or less than the wild type.

Sequences of proteins named here, by UniProt entry; tags and fusion partners are left off. A change or cut given only in a name is not applied to a line headed by its entry. Residues count along the entry.
UniProt O15123: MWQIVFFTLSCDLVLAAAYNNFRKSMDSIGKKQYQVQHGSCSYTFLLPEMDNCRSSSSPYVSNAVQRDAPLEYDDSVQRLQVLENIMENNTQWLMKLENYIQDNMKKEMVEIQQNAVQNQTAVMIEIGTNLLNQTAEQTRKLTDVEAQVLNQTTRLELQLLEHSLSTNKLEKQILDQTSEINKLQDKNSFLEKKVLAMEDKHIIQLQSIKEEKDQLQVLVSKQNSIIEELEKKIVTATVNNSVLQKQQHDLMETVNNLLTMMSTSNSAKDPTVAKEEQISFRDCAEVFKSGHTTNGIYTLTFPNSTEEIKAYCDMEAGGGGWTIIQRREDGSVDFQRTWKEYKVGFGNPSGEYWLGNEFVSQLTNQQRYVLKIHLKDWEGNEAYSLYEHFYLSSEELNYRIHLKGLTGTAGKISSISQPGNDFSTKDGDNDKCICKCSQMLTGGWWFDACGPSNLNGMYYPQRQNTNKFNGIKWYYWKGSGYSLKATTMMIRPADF
Human ANGPT2 Dimer (CC-FLD): residues 74-496 of O15123
human ANGPT2 (SPR analyte): residues 275-496 of O15123

Experiments:
[1] = target: Human ANGPT2 Dimer (CC-FLD) (human) (UniProt O15123); experiment: flow cytometry blocking assay: human ANGPT2 dimer (CC-FLD) pre-incubated with antibody, then added to HEK293 human Tie2 cells at 4 C; bound ANGPT2 detected with anti-His-AF647; blocked partner: human Tie2
[2] = target: cynomolgus (cyno) ANGPT2 (cynomolgus); experiment: affinity binding data (SPR)
[3] = target: T1, rabbit ANGPT2 (rabbit) (UniProt G1T9B3); experiment: affinity binding data (SPR)
T1 sequence: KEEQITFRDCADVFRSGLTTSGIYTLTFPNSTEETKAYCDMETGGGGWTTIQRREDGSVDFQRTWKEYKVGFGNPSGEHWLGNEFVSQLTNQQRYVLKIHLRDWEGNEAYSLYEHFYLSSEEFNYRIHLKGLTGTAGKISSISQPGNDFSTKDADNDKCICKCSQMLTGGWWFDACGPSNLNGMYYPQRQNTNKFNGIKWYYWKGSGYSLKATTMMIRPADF

[4] = target: human ANGPT2 (SPR analyte) (human) (UniProt O15123); experiment: affinity binding data (SPR)
[5] = target: human ANGPT2 (SPR analyte) (human) (UniProt O15123); experiment: SPR (ProteOn XPR36)

Measured: binding

B1: chimeric lead CL-209881 (antibody, V domains shown)
VH: QVQLKQSGAELVKPGSSVKISCRASGYIFIDYFINWVKQRPGQGLEWIGKIGPGSGSSSSNEKFKGKATLTADKSSSTAYMQLSSLTSEDSAVYFCAREAFDYDGDYYGMAYWGQGTSVTVSS
VL: DIVMTQSPSSLSVSAGEKVTMSCKSSQSLLNSGNQKNFLAWYQQKPGQPPKLLIYGASTRESGVPDRFTGSGSGTDFTLTITSVQAEDLAVYYCQNDHSYPITFGSGTKLEIK
binds: [1]

B2: ANGPT2-opt-1 (humanized) (antibody, human IgG1, kappa, V domains shown)
VH: QVQLVQSGAEVKKPGSSVKVSCKASGYIFIDYFINWVRQAPGQGLEWMGKIGPGSGSSSSNEKFKGRVTITADKSTSTAYMELSSLRSEDTAVYYCAREAFDYEGDYYGMAYWGQGTLVTVSS
VL: EIVMTQSPATLSVSPGERATLSCKSSQSLLASGNQKNFLAWYQQKPGQAPRLLIYGASTRESGIPARFSGSGSGTEFTLTISSLQSEDFAVYYCQNDHSYPITFGQGTKLEIKR
not listed: [1]
binds: all other assays above

B3: ANGPT2-opt-2 (humanized) (antibody, human IgG1, kappa, V domains shown)
VH: QVQLVQSGAEVKKPGSSVKVSCKASGYIFIEYFINWVRQAPGQGLEWMGKIGPGSGSSSSNEKFKGRVTITADKSTSTAYMELSSLRSEDTAVYYCAREAFDYEGDYYGMAYWGQGTLVTVSS
VL: EIVMTQSPATLSVSPGERATLSCKSSQSLLASGNQKNFLAWYQQKPGQAPRLLIYGASTRESGIPARFSGSGSGTEFTLTISSLQSEDFAVYYCQNDHSYPITFGQGTKLEIKR
not listed: [1]
binds: all other assays above

B4: ANGPT2-opt-13 (humanized) (antibody, human IgG1, kappa, V domains shown)
VH: QVQLVQSGAEVKKPGSSVKVSCKASGYIFIDYFINWVRQAPGQGLEWMGKIGPGSGSSSSNEKFKGRVTITADKSTSTAYMELSSLRSEDTAVYYCAREAFDYDGDYYGMAYWGQGTLVTVSS
VL: EIVMTQSPATLSVSPGERATLSCKSSQSLLSSGNQKSFLAWYQQKPGQAPRLLIYGASTRETGIPARFSGSGSGTEFTLTISSLQSEDFAVYYCQNDHSYPITFGQGTKLEIKR
not listed: [1]
binds: all other assays above

B5: ANGPT2-opt-19 (humanized) (antibody, human IgG1, kappa, V domains shown)
VH: QVQLVQSGAEVKKPGSSVKVSCKASGYIFIDYFINWVRQAPGQGLEWMGKIGPGSGSSSSNEKFKGRVTITADKSTSTAYMELSSLRSEDTAVYYCAREAFDYDGDYYGMAYWGQGTLVTVSS
VL: EIVMTQSPATLSVSPGERATLSCRASQSVLSSGNQKSFLAWYQQKPGQAPRLLIYGASTRETGIPARFSGSGSGTEFTLTISSLQSEDFAVYYCQQDHSYPITFGQGTKLEIKR
not listed: [1]
binds: all other assays above

B6: ANGPT2-opt-31 (humanized) (antibody, human IgG1, kappa, V domains shown)
VH: QVQLVQSGAEVKKPGSSVKVSCKASGYIFIDYFINWVRQAPGQGLEWMGKIGPGSGSSSSNEKFKGRVTITADKSTSTAYMELSSLRSEDTAVYYCAREAFDYDGDYYGMAYWGQGTLVTVSS
VL: EIVMTQSPATLSVSPGERATLSCKSSQSLLSSGNQKSFLAWYQQKPGQAPRLLIYGASTRESGIPARFSGSGSGTEFTLTISSLQSEDFAVYYCQNDHSYPITFGQGTKLEIKR
not listed: [1]
binds: all other assays above
